Data taken from ChEMBL document CHEMBL3988442, “University of Dundee, Small-Polar-MMV Screening Library” (2021).

By UniProt entry, the sequences of proteins in these tests, tags left out. Residues count along the entry.
UniProt A4I591, 1-473: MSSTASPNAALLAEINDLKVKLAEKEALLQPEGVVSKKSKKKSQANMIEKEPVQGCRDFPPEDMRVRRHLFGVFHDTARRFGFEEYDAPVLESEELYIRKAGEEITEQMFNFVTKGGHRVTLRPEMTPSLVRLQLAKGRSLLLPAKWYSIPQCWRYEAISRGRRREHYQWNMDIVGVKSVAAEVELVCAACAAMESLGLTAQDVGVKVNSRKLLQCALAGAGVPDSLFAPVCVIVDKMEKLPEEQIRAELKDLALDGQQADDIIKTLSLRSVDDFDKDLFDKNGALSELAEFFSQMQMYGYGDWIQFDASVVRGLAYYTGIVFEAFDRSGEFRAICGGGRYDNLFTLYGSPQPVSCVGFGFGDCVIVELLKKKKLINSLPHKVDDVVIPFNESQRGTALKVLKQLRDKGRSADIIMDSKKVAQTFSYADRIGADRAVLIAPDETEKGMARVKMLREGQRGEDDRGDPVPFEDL

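Enzyme assay of histidyl-tRNA synthetase; the read-out is not stated. Target: Histidine-tRNA ligase, Leishmania infantum (UniProt A4I591). Compounds at 30 µM. The record gives no direction; compounds that gave an IC50 in retests scored well above the rest, so higher reads as stronger inhibition. The assay is labelled LdHisRS but filed under L. infantum. About 69,000 compounds were tested under these conditions; 0.6% (about 410) showed 50% or more at least once.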

The filed quantity is “Percent Effect” (%). The controls that fix the scale are not given in the record; negative values are as filed. The compounds are a random part of those screened. Two or more numbers in one place are separate tests of the same structure; such repeats can differ widely.

* c1ccc(OCc2n[nH]c3c2CN(Cc2cccs2)C3)nc1 | 23.08%
* O=C(c1ccccc1)N1CCCC(Nc2ccc(F)cc2)C1 (centres unmarked) | 18.4%
* COCc1nc(CN2C(=O)OC[C@@H]2C(C)C)no1 | 8%
* Cc1nc(C2CCCN(C(C)C)C2)sc1Br (centres unmarked) | 5.634%
* Clc1cncc(NCc2cccc(OCCN3CCOCC3)c2)n1 | 9.677%
* CC(C)N1C(=O)C[C@H]2[C@@H]1CCN2C(=O)c1ccco1 | -14%
* CN1C(Cn2cccn2)C[C@@H]2CN(Cc3ccccn3)CC[C@@H]21 (some centres unmarked) | 17.81%
* Cc1noc(C)c1C(=O)NCc1ccc(N2CCCCCC2)nc1 | 12.07%
* CC(C)CC(N)C1=N/C(=C2\N=CN=N2)NO1 (centres unmarked) | -8.333%
* c1cc(CN2C[C@@H]3OCCN(CCN4CCCC4)[C@@H]3C2)cs1 | 10.92%
* CCOCCCC(=O)Nc1cc(C(N)=O)ccc1N1CCCCC1 | 10.26%
* CCc1nc(CN2CCCN(C(=O)C(C)COC)CC2)cs1 (centres unmarked) | 27.4%
* O=c1c(S(=O)(=O)N2CCCCC2)cccn1Cc1cccnc1 | 16.48%
* CCC(CC)C(=O)NCc1cnn(CC)c1 | 5%
* COc1cccc(OC)c1-c1ccnc2cc(CC(=O)NC3CC3)nn12 | 11.43%
* Cc1cc(C(=O)NCc2ccnc(N3CCN(C)CC3)c2)c(C)s1 | -12.77%
* Cc1ccc(-c2nc(C(=O)N(C)CC(=O)N(C)C)cs2)c(C)c1 | 12.4%
* CC(C)C1CN(S(=O)(=O)Cc2cccc(C#N)c2)CCS1 (centres unmarked) | 7.937%
* CCC(CC)n1nc(C)cc1NC(=O)C1CCOC1 (centres unmarked) | 10.96%
* CCCNC(=O)c1ccc(NC(=O)NC(C)c2ccccn2)cc1 (centres unmarked) | 24.73%
* COc1ccc(C2CC(=O)NCc3nc4ccccn4c32)cn1 (centres unmarked) | 11.11%
* O=C(Nc1cccnc1)[C@H]1CO[C@H]2CCNC[C@H]2C1 | 45.83%
* CCNC(=O)[C@@H]1C[C@H](N)CN1c1cc(CC)nc(N(C)C)n1 | 17.65%
* Cc1cccc(COC[C@@]23CCC[C@@H]2CN(S(=O)(=O)N(C)C)C3)n1 | 10.92%
* CCC1=NC(SCC(=O)c2ccc(OC)cc2)c2cc(CC)sc2N1 (centres unmarked) | 3.448%
* CCN1CCC(=O)N(C)Cc2cc(F)ccc21 | 2.041%
* Cc1cc(N(C)CCn2ccnc2C)n2nccc2n1 | 8.602%
* Cc1noc(C)c1CC(=O)N[C@@H]1CC[C@@H](Oc2ccccc2)[C@@H]1O | 16.78%
* Cc1ccc(CN2C[C@H](OCCN(C)C)[C@H]3COC[C@H]32)o1 | 13.46%
* CC(C(=O)Nc1ccccc1F)S(C)(=O)=O (centres unmarked) | 15.93%
* CCOC(=O)CC(c1cccc(OC)c1OC)c1c(C)[nH][nH]c1=O (centres unmarked) | 12.09% & 14.29%
* CN(C)C(=O)CO[C@H]1CN(Cc2ccoc2)[C@@H]2COC[C@H]12 | 9.434%
* O=C(c1coc(COc2cccc3cnccc23)n1)N1CCCCCC1 | 1.316%
* COCC(=O)N1CC[C@H]2C[C@H](c3nnc(C4CC4)o3)O[C@@H]2C1 | 2.778%
* CC(C)CN1CCCn2nc(CNC(=O)CCN)cc2C1 | 30.1%
* CN(C)CCN(C)C(=O)c1ccccc1-n1cc(CN(C)C)cn1 | -3.158%
* CCOCCCNCc1cc2c(C)cc(C)cc2n2c(=O)n(C)nc12 | 16.49%
* O=C(Cc1cccc(F)c1)N1C[C@H]2CN(Cc3ccccn3)C[C@H]2C1 | 15.38%
* Cc1nc(CN2CCCC(N(C)c3ccc(C#N)cn3)C2)no1 (centres unmarked) | 10.75%
* CC(NC1(CNC(=O)CC(C)(C)C)CCOCC1)c1ccccc1 (centres unmarked) | 18.87%
* Cc1ccc2ncccc2c1CN1CC[C@H](N(C)C)[C@H](CCC(=O)O)C1 | 17.33%
* Cc1ccc(C(=O)Nc2nnc(C3CC3)s2)c(-n2cnnn2)c1C | 18.68%
* COC[C@@]12CCO[C@@H]1CCN(C(=O)COc1ccccc1OC)C2 | 11.43%
* N#Cc1ccc(F)c(CN(CC(=O)N2CCCC2)CC2CCCO2)c1 (centres unmarked) | 19.18%
* COC(=O)CCN(CC1CCOC1)C1CC1 (centres unmarked) | 11.11%
* O=S(=O)(c1cccc(Cl)c1)N1CCCC(Cn2cncn2)C1 (centres unmarked) | 5.479%
* Cc1cnc(N2Cc3nccn3CC(Cn3ncccc3=O)C2)nc1 (centres unmarked) | 15.28%
* CC(=O)N1CCO[C@@H]2CN(C(=O)c3ccccc3)CC[C@@H]2C1 | 28.95%
* CC(C)N(CCC#N)C(=O)c1cnc(-c2ccc3c(c2)OCO3)s1 | 8.85%

3 of the entries, repeated:

{"compound": "CN1C(Cn2cccn2)C[C@@H]2CN(Cc3ccccn3)CC[C@@H]21", "stereo": "some centres unmarked", "Percent Effect": 17.81}
{"compound": "Cc1ccc(-c2nc(C(=O)N(C)CC(=O)N(C)C)cs2)c(C)c1", "Percent Effect": 12.4}
{"compound": "Clc1cncc(NCc2cccc(OCCN3CCOCC3)c2)n1", "Percent Effect": 9.677}